Laboratory results: article doi:10.1101/2024.04.22.590536 (bioRxiv, 2024)

Target: T1, Stm1-3xMyc (S. cerevisiae) (UniProt P39015)
T1 sequence: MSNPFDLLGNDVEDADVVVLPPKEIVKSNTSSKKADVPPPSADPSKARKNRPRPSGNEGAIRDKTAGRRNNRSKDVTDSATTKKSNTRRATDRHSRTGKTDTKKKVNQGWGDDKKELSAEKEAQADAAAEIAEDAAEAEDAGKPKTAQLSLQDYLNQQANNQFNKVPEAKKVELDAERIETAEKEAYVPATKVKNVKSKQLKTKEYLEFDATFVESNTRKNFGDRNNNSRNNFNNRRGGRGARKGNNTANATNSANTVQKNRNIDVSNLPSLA
Test: affinity purification with mass spectrometry

B1: Ifh1 (endogenous) (protein, UniProt P39520 1-1085)
chain: MAGKKSPRKSTINHSTHSGKLPANIKRLIKKGESDTKSRQSPPTLSTTRPRRFSLIYSSESSLSDVSDSDKNKSTNPHKIKRKAKNISNNSQGKKSKLIQRQIDNDDEGTESSDYQAVTDGEESENEEEESEEEEEDDDEDDDDDDDDGSDSDSDSETSSDDENIDFVKLTAQRKKRAMKALSAMNTNSNTLYSSRENSNKNKSVKLSPKKENEEEQKEEKEKEKEEQQKQQESNKKEVNGSGTTTTQQALSFKFKKEDDGISFGNGNEGYNEDIGEEVLDLKNKENNGNEEDKLDSKVMLGNNDELRFPNISESDESEYDIDQDAYFDVINNEDSHGEIGTDLETGEDDLPILEEEEQNIVSELQNDDELSFDGSIHEEGSDPVEDAENKFLQNEYNQENGYDEEDDEEDEIMSDFDMPFYEDPKFANLYYYGDGSEPKLSLSTSLPLMLNDEKLSKLKKKEAKKREQEERKQRRKLYKKTQKPSTRTTSNVDNDEYIFNVFFQSDDENSGHKSKKGRHKSGKSHIEHKNKGSNLIKSNDDLEPSTHSTVLNSGKYDSSDDEYDNILLDVAHMPSDDECSESETSHDADTDEELRALDSDSLDIGTELDDDYEDDDDDSSVTNVFIDIDDLDPDSFYFHYDSDGSSSLISSNSDKENSDGSKDCKHDLLETVVYVDDESTDEDDNLPPPSSRSKNIGSKAKEIVSSNVVGLRPPKLGTWETDNKPFSIIDGLSTKSLYALIQEHQQLREQHQRAQTPDVKREGSSNGNNGDELTLNELLNMSELEDDSPSHTDDMENNYNDAINSKSTNGHAADWYEVPKVPLSAFRNKGINAYEEDEYMIPANSNRKVPIGYIGNERTRKKIDKMKELQRKKTEKKRQLKKKKKLLKIRKQRQKAIKEQETMNLQLGINGHEIIGNNNSHSDINTGTDFTTNENTPMNELPSHAPEDASLIPHNSDLAVDSNTRKNSTKSVGLDEIHEILGKDENDLLSVGDINGYDAQEGHVIEDTDADILASLTAPVQFDNTLSHENSNSMWRRRQSMVEAAAENLRFTKNGLFSESALADIEGIMGNDVNHSFEFNDVLQ
binding: binds

B2: Ckb2 (endogenous) (protein, UniProt P38930 1-258)
chain: MGSRSENVGTVTREGSRVEQDDVLMDDDSDSSEYVDMWIDLFLGRKGHEYFCDVDPEYITDRFNLMNLQKTVSKFSYVVQYIVDDLDDSILENMTHARLEQLESDSRKLYGLIHARYIITIKGLQKMYAKYKEADFGRCPRVYCNLQQLLPVGLHDIPGIDCVKLYCPSCEDLYIPKSSRHSSIDGAYFGTSFPGMFLQAFPDMVPKHPTKRYVPKIFGFELHKQAQLTRWQELQRLKLVEKLESKDVDLTKSGGFKT
binding: binds

B3: Utp22 (endogenous) (protein, UniProt P53254 1-1237)
chain: MATSVKRKASETSDQNIVKVQKKHSTQDSTTDNGSKENDHSSQAINERTVPEQENDESDTSPESNEVATNTAATRHNGKVTATESYDIHIARETAELFKSNIFKLQIDELLEQVKLKQKHVLKVEKFLHKLYDILQEIPDWEEKSLAEVDSFFKNKIVSVPFVDPKPIPQNTNYKFNYKKPDISLIGSFALKAGIYQPNGSSIDTLLTMPKELFEKKDFLNFRCLHKRSVYLAYLTHHLLILLKKDKLDSFLQLEYSYFDNDPLLPILRISCSKPTGDSLSDYNFYKTRFSINLLIGFPYKVFEPKKLLPNRNCIRIAQESKEQSLPATPLYNFSVLSSSTHENYLKYLYKTKKQTESFVEATVLGRLWLQQRGFSSNMSHSGSLGGFGTFEFTILMAALLNGGGINSNKILLHGFSSYQLFKGVIKYLATMDLCHDGHLQFHSNPENSSSSPASKYIDEGFQTPTLFDKSTKVNILTKMTVSSYQILKEYAGETLRMLNNVVQDQFSNIFLTNISRFDNLKYDLCYDVQLPLGKYNNLETSLAATFGSMERVKFITLENFLAHKITNVARYALGDRIKYIQIEMVGQKSDFPITKRKVYSNTGGNHFNFDFVRVKLIVNPSECDKLVTKGPAHSETMSTEAAVFKNFWGIKSSLRRFKDGSITHCCVWSTSSSEPIISSIVNFALQKHVSKKAQISNETIKKFHNFLPLPNLPSSAKTSVLNLSSFFNLKKSFDDLYKIIFQMKLPLSVKSILPVGSAFRYTSLCQPVPFAYSDPDFFQDVILEFETSPKWPDEITSLEKAKTAFLLKIQEELSANSSTYRSFFSRDESIPYNLEIVTLNILTPEGYGFKFRVLTERDEILYLRAIANARNELKPELEATFLKFTAKYLASVRHTRTLENISHSYQFYSPVVRLFKRWLDTHLLLGHITDELAELIAIKPFVDPAPYFIPGSLENGFLKVLKFISQWNWKDDPLILDLVKPEDDIRDTFETSIGAGSELDSKTMKKLSERLTLAQYKGIQMNFTNLRNSDPNGTHLQFFVASKNDPSGILYSSGIPLPIATRLTALAKVAVNLLQTHGLNQQTINLLFTPGLKDYDFVVDLRTPIGLKSSCGILSATEFKNITNDQAPSNFPENLNDLSEKMDPTYQLVKYLNLKYKNSLILSSRKYIGVNGGEKGDKNVITGLIKPLFKGAHKFRVNLDCNVKPVDDENVILNKEAIFHEIAAFGNDMVINFETD
binding: binds

B4: Rrp7 (endogenous) (protein, UniProt P25368 1-297)
chain: MGIEDISAMKNGFIVVPFKLPDHKALPKSQEASLHFMFAKRHQSSNSNESDCLFLVNLPLLSNIEHMKKFVGQLCGKYDTVSHVEELLYNDEFGLHEVDLSALTSDLMSSTDVNEKRYTPRNTALLKFVDAASINNCWNALKKYSNLHAKHPNELFEWTYTTPSFTTFVNFYKPLDIDYLKEDIHTHMAIFEQREAQAQEDVQSSIVDEDGFTLVVGKNTKSLNSIRKKILNKNPLSKHENKAKPISNIDKKAKKDFYRFQVRERKKQEINQLLSKFKEDQERIKVMKAKRKFNPYT
binding: binds

No constants are given. Whether binding was seen depends on the method and setting. Binding seen in cells or lysates may run through a third protein. These calls come from enrichment with a bait or labelling near it, and not all partners need be listed. Where a sequence is shown, tags or fusion partners need not be part of it.
